Data on two molecules can be found in paper PMC11558077.

Sequences of proteins named here, by UniProt entry; tags and fusion partners are left off.
UniProt P0DTC4: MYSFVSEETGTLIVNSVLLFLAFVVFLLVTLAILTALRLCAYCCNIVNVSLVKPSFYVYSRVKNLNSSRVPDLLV

No constants are given. Whether binding was seen depends on the method and setting. In cells and extracts the contact can be indirect. Some results given as binding are weak or reduced against the parent protein; the word gives no strength.

Experiment [1] addresses T1, USP33 in HEK293T cell lysate (Figure 1D, Figure 1F) (human) (UniProt Q8TEY7).
T1 sequence: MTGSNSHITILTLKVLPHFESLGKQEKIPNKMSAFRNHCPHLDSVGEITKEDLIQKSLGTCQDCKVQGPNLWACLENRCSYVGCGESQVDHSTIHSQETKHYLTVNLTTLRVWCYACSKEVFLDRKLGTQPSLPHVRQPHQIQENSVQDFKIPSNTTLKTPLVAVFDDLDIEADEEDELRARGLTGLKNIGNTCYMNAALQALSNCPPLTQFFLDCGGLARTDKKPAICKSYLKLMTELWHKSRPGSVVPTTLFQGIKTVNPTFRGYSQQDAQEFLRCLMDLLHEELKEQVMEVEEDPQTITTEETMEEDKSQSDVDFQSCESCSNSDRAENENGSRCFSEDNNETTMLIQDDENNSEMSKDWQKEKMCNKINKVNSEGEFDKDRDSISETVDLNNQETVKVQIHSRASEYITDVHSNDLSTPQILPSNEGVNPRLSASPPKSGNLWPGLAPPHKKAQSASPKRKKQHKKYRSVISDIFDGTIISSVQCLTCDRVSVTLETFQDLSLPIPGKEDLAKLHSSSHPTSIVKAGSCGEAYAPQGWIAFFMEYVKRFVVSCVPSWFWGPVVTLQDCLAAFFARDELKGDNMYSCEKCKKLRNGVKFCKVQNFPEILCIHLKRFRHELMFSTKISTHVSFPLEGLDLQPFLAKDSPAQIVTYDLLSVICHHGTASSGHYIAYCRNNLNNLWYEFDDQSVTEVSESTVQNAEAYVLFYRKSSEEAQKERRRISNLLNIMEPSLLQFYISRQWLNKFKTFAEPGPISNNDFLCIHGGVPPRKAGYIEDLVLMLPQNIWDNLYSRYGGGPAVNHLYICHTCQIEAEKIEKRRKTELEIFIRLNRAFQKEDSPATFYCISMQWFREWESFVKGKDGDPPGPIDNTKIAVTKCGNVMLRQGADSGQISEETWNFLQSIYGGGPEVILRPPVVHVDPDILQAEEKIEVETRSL
The experiment can be described thus: co-IP.

Experiment [2] addresses GST-E protein (SARS-CoV-2) (UniProt P0DTC4). The experiment in a line: pull-down; only the target purified.

For the molecule “SARS-CoV-2 envelope (E) protein, tagged, from a transfected plasmid (from UniProt P0DTC4 1-75)”, the binding result in experiment [1] is “binds”.

B1: USP33 in HEK293T cell lysate (Figure 1D, Figure 1F) (enzyme, UniProt Q8TEY7 1-942)
chain: MTGSNSHITILTLKVLPHFESLGKQEKIPNKMSAFRNHCPHLDSVGEITKEDLIQKSLGTCQDCKVQGPNLWACLENRCSYVGCGESQVDHSTIHSQETKHYLTVNLTTLRVWCYACSKEVFLDRKLGTQPSLPHVRQPHQIQENSVQDFKIPSNTTLKTPLVAVFDDLDIEADEEDELRARGLTGLKNIGNTCYMNAALQALSNCPPLTQFFLDCGGLARTDKKPAICKSYLKLMTELWHKSRPGSVVPTTLFQGIKTVNPTFRGYSQQDAQEFLRCLMDLLHEELKEQVMEVEEDPQTITTEETMEEDKSQSDVDFQSCESCSNSDRAENENGSRCFSEDNNETTMLIQDDENNSEMSKDWQKEKMCNKINKVNSEGEFDKDRDSISETVDLNNQETVKVQIHSRASEYITDVHSNDLSTPQILPSNEGVNPRLSASPPKSGNLWPGLAPPHKKAQSASPKRKKQHKKYRSVISDIFDGTIISSVQCLTCDRVSVTLETFQDLSLPIPGKEDLAKLHSSSHPTSIVKAGSCGEAYAPQGWIAFFMEYVKRFVVSCVPSWFWGPVVTLQDCLAAFFARDELKGDNMYSCEKCKKLRNGVKFCKVQNFPEILCIHLKRFRHELMFSTKISTHVSFPLEGLDLQPFLAKDSPAQIVTYDLLSVICHHGTASSGHYIAYCRNNLNNLWYEFDDQSVTEVSESTVQNAEAYVLFYRKSSEEAQKERRRISNLLNIMEPSLLQFYISRQWLNKFKTFAEPGPISNNDFLCIHGGVPPRKAGYIEDLVLMLPQNIWDNLYSRYGGGPAVNHLYICHTCQIEAEKIEKRRKTELEIFIRLNRAFQKEDSPATFYCISMQWFREWESFVKGKDGDPPGPIDNTKIAVTKCGNVMLRQGADSGQISEETWNFLQSIYGGGPEVILRPPVVHVDPDILQAEEKIEVETRSL
Take B1: in experiment [2], the binding result is recorded as “binds”.
